Experimental data: PubChem BioAssay AID1159578 (Peter MacCallum Cancer Centre, 2015)
Shown is one part, drawn at random, of about 18,000 deposited reagents. About 1,030 of them (5.7%) were called active. 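Inactive calls also include pools with fewer than 3300 nuclei, whose migration was not assessed.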 Raw values vary from plate to plate and are shown uncorrected. Entries without a mark were called inactive. Not all columns of the deposit are shown.

Aim: 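Genome-wide hunt for genes controlling movement of lymphatic endothelial cells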 (primary screen)
Cell system: human lymphatic endothelial cells
Reagents: siRNA pool against human genes, 40 nM
Duration: 48 h after transfection
Measured: 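Cells stained with dye and imaged after a scratch; covered wound area and nuclei counted, duplicates averaged, migration set against mock wells and turned into a robust z-score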
Reading the numbers: migration robust z-score: higher = faster migration into the scratch; nuclei per well: higher = more cells in the well
Hit rule: 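Migration changed when robust z exceeds 2 or falls below -2 and mean nuclei number is at least 3300; otherwise not called changed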
Meaning of the calls: active = migration changed; inactive = no migration change, or too few cells

The opening 3 records, ahead of the listing:
| gene | migration robust z-score | nuclei per well, duplicate mean |
| --- | --- | --- |
| CHST14 (carbohydrate sulfotransferase 14) | -1.69 | 4286 |
| UBAC1 (UBA domain containing 1) | -0.17 | 6432 |
| OR8K5 (olfactory receptor family 8 subfamily K member 5) | 0.44 | 5674 |

The listing, from the start:
| gene | migration robust z-score | nuclei per well, duplicate mean |
| --- | --- | --- |
| CHST14 (carbohydrate sulfotransferase 14) | -1.69 | 4286 |
| UBAC1 (UBA domain containing 1) | -0.17 | 6432 |
| OR8K5 (olfactory receptor family 8 subfamily K member 5) | 0.44 | 5674 |
| TBX18 (T-box transcription factor 18) | 0.16 | 6639 |
| CAMK1 (calcium/calmodulin dependent protein kinase I) | -2.39 (active) | 4106 |
| KHNYN (KH and NYN domain containing) | 1.18 | 5842 |
| CLDN10 (claudin 10) | 0.93 | 5288 |
| KIF17 (kinesin family member 17) | -0.62 | 5730 |
| AMDHD1 (amidohydrolase domain containing 1) | -0.68 | 6612 |
| CT47A10 (cancer/testis antigen family 47 member A10) | -1.27 | 5658 |
| CDK18 (cyclin dependent kinase 18) | -2.31 | 3192 |
| LCAT (lecithin-cholesterol acyltransferase) | -0.34 | 6038 |
| MAP3K9 (mitogen-activated protein kinase kinase kinase 9) | 0.94 | 5888 |
| HAMP (hepcidin antimicrobial peptide) | 0.38 | 6056 |
| MIER3 (MIER family member 3) | -0.2 | 6038 |
| SSU72 (SSU72 homolog, RNA polymerase II CTD phosphatase) | -1.99 | 5654 |
| TGFB2 (transforming growth factor beta 2) | 0.52 | 6364 |
| GRP (gastrin releasing peptide) | 1.19 | 5658 |
| EFR3A (EFR3 homolog A) | -1.58 | 5793 |
| MYC (MYC proto-oncogene, bHLH transcription factor) | -1.35 | 4732 |
| MRS2 (magnesium transporter MRS2) | 0.22 | 5536 |
| HYCC2 (hyccin PI4KA lipid kinase complex subunit 2) | -0.92 | 4930 |
| POLA1 (DNA polymerase alpha 1, catalytic subunit) | -1.14 | 2695 |
| UBE4A (ubiquitination factor E4A) | 0.21 | 5358 |
| SKI (SKI proto-oncogene) | 0.41 | 6206 |
| CADPS2 (calcium dependent secretion activator 2) | 1.19 | 5454 |
| ZNF197 (zinc finger protein 197) | -1.22 | 5673 |
| DHRS2 (dehydrogenase/reductase 2) | 0.52 | 5232 |
| NDUFAB1 (NADH:ubiquinone oxidoreductase subunit AB1) | -0.78 | 4702 |
| COG5 (component of oligomeric golgi complex 5) | -0.54 | 5604 |
| TAOK2 (TAO kinase 2) | -0.6 | 4190 |
| SLC22A2 | 0.29 | 6412 |
| PDZD4 (PDZ domain containing 4) | -0.75 | 6656 |
| TMC7 (transmembrane channel like 7) | -0.33 | 5836 |
| ERI1 (exoribonuclease 1) | 0.16 | 6429 |
| SSH2 (slingshot protein phosphatase 2) | 0.34 | 5192 |
| DOK6 (docking protein 6) | -0.3 | 5693 |
| CMAS (cytidine monophosphate N-acetylneuraminic acid synthetase) | 0.29 | 5543 |
| DNAI1 (dynein axonemal intermediate chain 1) | -0.83 | 6254 |
